From publication PMC7994445
These are yes or no findings as the source states them, for the method shown. Some entries that bind do so weakly or less than the wild type.

Amino acid sequences for entries named in this document (tags omitted). A change or cut given only in a name is not applied to a line headed by its entry.
UniProt Q8I4X0: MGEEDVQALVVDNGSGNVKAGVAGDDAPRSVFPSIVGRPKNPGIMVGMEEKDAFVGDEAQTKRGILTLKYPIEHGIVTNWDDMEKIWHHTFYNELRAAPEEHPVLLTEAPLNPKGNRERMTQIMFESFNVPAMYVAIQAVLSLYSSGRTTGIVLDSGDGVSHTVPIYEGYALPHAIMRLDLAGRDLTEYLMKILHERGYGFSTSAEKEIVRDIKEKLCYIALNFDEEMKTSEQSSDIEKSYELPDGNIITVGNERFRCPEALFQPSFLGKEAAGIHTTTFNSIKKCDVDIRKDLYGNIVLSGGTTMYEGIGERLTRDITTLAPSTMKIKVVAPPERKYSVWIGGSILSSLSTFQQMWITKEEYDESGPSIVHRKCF
UniProt Q8IDR3: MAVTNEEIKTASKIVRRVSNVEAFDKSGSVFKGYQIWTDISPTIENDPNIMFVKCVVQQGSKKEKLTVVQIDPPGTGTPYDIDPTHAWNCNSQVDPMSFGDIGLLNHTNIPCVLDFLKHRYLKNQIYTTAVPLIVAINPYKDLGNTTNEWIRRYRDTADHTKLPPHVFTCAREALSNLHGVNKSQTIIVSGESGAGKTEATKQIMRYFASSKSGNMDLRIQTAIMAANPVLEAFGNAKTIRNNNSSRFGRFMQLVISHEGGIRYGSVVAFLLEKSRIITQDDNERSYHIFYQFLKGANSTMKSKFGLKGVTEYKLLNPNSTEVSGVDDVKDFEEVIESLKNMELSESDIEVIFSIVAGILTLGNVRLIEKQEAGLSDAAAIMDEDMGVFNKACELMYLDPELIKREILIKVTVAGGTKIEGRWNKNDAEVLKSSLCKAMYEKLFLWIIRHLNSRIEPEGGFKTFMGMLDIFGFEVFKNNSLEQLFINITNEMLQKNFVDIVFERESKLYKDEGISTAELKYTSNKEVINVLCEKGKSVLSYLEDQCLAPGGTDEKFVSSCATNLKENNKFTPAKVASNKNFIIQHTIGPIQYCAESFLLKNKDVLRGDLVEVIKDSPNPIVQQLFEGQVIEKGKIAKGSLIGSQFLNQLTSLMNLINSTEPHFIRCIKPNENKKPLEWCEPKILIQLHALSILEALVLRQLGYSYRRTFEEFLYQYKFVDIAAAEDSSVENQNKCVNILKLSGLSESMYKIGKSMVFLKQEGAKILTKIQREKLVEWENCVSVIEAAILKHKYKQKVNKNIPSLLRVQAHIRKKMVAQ

Target: PfActin-1 filaments (Plasmodium falciparum) (UniProt Q8I4X0)
Assay: cryo-EM micrographs of filament decoration; screen of PfMyoA constructs incubated in solution with skeletal F-actin or PfAct1 filaments, vitrified within 15 min; occupancy judged from micrographs and 2D classes; both purified

| binding | Substance |
| --- | --- |
| binds | PfMyoA motor domain (from UniProt Q8IDR3 1-768) (domain or fragment) |
| binds | PfMyoA full-length protein (from UniProt Q8IDR3 1-818) |
